Assay results as given in publication PMC3516501.
Results are given in words; binding and its absence hold for the method and conditions named. In cells and extracts the contact can be indirect. Some entries that bind do so weakly or less than the wild type.

Sequences of proteins named here, by UniProt entry; tags and fusion partners are left off.
UniProt Q00987: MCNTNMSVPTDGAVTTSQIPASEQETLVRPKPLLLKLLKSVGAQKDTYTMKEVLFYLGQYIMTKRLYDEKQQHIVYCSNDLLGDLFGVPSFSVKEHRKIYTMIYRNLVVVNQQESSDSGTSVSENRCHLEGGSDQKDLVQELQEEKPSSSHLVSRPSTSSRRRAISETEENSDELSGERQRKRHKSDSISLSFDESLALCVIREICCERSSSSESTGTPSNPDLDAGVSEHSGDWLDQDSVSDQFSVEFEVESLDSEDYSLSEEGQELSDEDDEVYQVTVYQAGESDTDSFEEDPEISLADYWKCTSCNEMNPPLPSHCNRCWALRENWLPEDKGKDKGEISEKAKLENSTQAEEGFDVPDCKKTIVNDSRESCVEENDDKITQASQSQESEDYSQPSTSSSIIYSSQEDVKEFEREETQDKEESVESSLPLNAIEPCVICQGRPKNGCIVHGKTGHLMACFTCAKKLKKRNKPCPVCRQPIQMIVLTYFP

Assays:
[1] = molecular target: T1, ubiquitin specific protease 2a (USP2a) (human (endogenous in T24 and TRT-HU1)) (UniProt O75604); assay: co-IP; TRT-HU1 cells in exponential growth, untreated; whole cell lysates, IP with anti-USP2a antibody, western blot with antibodies against USP2a and MDM2; normal mouse IgG as IP control
T1 sequence: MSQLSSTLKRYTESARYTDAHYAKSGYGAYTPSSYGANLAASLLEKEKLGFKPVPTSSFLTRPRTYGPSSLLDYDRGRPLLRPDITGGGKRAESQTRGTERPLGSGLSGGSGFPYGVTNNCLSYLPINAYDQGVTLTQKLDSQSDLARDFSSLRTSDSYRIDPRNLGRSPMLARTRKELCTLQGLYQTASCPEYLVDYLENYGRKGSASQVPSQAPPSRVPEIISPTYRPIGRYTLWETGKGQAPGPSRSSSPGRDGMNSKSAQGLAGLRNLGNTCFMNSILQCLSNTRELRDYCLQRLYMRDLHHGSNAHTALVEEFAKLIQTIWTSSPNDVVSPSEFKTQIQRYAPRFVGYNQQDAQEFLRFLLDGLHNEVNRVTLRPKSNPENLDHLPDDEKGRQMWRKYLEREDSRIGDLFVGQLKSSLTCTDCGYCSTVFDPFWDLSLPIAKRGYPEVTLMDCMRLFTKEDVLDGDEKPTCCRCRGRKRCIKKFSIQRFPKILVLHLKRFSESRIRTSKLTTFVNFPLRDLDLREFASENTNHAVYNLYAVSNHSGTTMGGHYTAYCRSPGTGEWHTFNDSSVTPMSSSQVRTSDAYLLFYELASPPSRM

[2] = molecular target: T1, ubiquitin specific protease 2a (USP2a) (human (endogenous in T24 and TRT-HU1)); assay: co-IP; exponentially growing, untreated T24 cells; co-IP and western blot with antibodies against USP2a and MDM2

- binding [1]: binds
- binding [2]: binds
Substance: murine double minute 2 E3 ubiquitin ligase (MDM2) (from UniProt Q00987 1-491) (enzyme)
